Drawing on paper PMC7320039, this text covers binding for one substance.

These are yes or no findings as the source states them, for the method shown. Binding seen in cells or lysates may run through a third protein. Binding calls can cover weak binding; strength is not graded here. Sequences can lack the tags named with a protein.

In the test the target is T1, Flag-DYRK2 (dual-specificity tyrosine-phosphorylation-regulated kinase 2), wild type (human) (UniProt Q92630).
T1 sequence: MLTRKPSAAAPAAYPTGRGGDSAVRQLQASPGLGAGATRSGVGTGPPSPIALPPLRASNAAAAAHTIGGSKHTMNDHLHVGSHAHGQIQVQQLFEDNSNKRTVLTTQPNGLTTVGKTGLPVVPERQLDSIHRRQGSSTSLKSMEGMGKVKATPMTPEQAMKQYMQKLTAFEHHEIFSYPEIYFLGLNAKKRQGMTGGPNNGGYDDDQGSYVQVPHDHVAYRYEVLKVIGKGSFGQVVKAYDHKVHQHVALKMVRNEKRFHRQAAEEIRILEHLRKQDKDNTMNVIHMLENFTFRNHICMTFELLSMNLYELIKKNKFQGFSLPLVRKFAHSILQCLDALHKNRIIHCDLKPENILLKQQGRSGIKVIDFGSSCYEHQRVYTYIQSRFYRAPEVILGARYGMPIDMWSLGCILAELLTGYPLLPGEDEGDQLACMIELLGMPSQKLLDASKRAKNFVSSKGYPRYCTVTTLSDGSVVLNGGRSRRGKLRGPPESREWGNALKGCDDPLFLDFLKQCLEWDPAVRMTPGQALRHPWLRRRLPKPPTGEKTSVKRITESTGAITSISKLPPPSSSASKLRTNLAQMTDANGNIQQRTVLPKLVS
The experiment in a line: co-IP; HEK-293T co-transfected, MG-132 (10 uM) for the last 12 h; lysis in IP buffer (50 mM Hepes pH 7.5, 50 mM NaCl, 1% Triton X-100, 2 mM EDTA); IP with anti-Flag antibody and protein A/G Sepharose, western blot.

For “Myc-tagged Notch1-IC (intracellular domain of NOTCH1) (domain or fragment)”, the binding entry is given as “binds”.
